Laboratory results as given in the supplement of paper PMC12873370.
Values joined by “and” are separate entries in the source; they are usually repeats but may differ in a detail not shown here. Equal values may be shown once. The list shows a part of the results. Many values rest on one well or one pass, so single values are uncertain.

How the values were obtained:
[1] = system: MEPP (mouse ovarian epithelium Trp53/Pten KO); test: cell viability relative to untreated (fraction); higher = less growth inhibition; conditions: 5 µM; 3 days
[2] = system: PREPP (mouse prostate epithelium Trp53/Pten KO); test: as above; conditions: 5 µM; 3 days

Row | Compound | cell viability [1] | cell viability [2]
1 | CC(=O)CCC(=O)O | 1.04 | 0.938
2 | Oc1cc(O)c2c(c1)O[C@H](c1ccc(O)c(O)c1)[C@H](O)C2 | 0.885 | 0.954
3 | C[C@@H]1C[C@H]2[C@@H]3CCC4=CC(=O)C=C[C@]4(C)[C@@]3(F)[C@@H](O)C[C@]2(C)[C@@]1(O)C(=O)CO | 1.23 | 0.906
4 | Clc1ncnc2nc[nH]c12 | 0.941 | 1
5 | C[C@H](CCC(=O)NCCS(=O)(=O)O)[C@H]1CC[C@H]2[C@@H]3[C@@H](O)C[C@@H]4C[C@H](O)CC[C@]4(C)[C@H]3CC[C@]12C | 0.873 | 0.853
6 | O=c1oc2cc(O)ccc2c2ccc(O)cc12 | 0.889 | 0.996
7 | CC(C)[C@@H](C)[C@@H](O)[C@H](O)[C@@H](C)[C@H]1CC[C@H]2[C@@H]3COC(=O)[C@H]4C[C@H](O)[C@H](O)C[C@]4(C)[C@H]3CC[C@]12C | 1.1 | 1.05
8 | N[C@@H](Cc1cc(I)c(Oc2cc(I)c(O)c(I)c2)c(I)c1)C(=O)O | 1.1 and 1.11 | 0.903 and 1
9 | O=S(=O)(O)CCSSCCS(=O)(=O)O | 1.14 | 0.743
10 | Nc1ncnc2c1ncn2[C@@H]1O[C@H](CO)[C@@H](O)[C@@H]1O | 0.837 and 0.886 | 1.12 and 1.07
11 | O[C@H]1[C@H](O)[C@@H](O)[C@H](O)[C@@H](O)[C@H]1O | 0.799 | 0.913
12 | C[C@]12CCC(=O)C=C1CC[C@@H]1[C@@H]2[C@@H](O)C[C@@]2(C)[C@H]1CC[C@]2(O)C(=O)COC(=O)CCC(=O)O | 0.84 | 0.802
13 | Cc1nc2n(c(=O)c1CCN1CCC(c3noc4cc(F)ccc34)CC1)CCCC2O (stereo not given) | 1.17 | 1.01
14 | Cc1cnc(=O)[nH]c1N | 0.888 | 1.24
15 | Cc1ncc(C[n+]2csc(CCO)c2C)c(N)n1 | 1.05 and 1.27 and 1.06 | 0.984 and 1.08 and 0.94
16 | NCCCNCCCCNCCCN | 0.882 and 1.03 | 0.93 and 0.816
17 | OC[C@H]1O[C@@H](n2cnc3c2N=CNC[C@H]3O)C[C@@H]1O | 1.09 | 0.88
18 | O=C1Nc2ccccc2C1=O | 0.752 | 1.12
19 | CCn1cc(C(=O)O)c(=O)c2ccc(C)nc21 | 0.884 | 0.891
20 | CCn1cc(C(=O)O)c(=O)c2cnc(N3CCCC3)nc21 | 1.16 | 1.02
21 | CCCCCCCCCCCCCCCC(=O)NCCO | 0.821 | 0.906
22 | CCCN[C@H]1CCc2nc(N)sc2C1 | 1.14 | 0.894

Row | Compound | cell viability [1] | cell viability [2]
23 | COc1cc(/C=C/C(=O)O)cc(OC)c1OC | 1.03 | 1.03
24 | CC[C@H](C)[C@H](N)C(=O)O | 0.974 | 0.987
25 | OC[C@H]1O[C@@H](OCCc2ccc(O)cc2)[C@H](O)[C@@H](O)[C@@H]1O | 1.09 | 0.961
26 | Oc1ccc([C@H]2COc3cc(O)ccc3C2)cc1 | 1.34 | 1.02
27 | NC(=O)NC1NC(=O)NC1=O (stereo not given) | 0.886 | 1.02
28 | CC(=O)O[C@@H]1C[C@H](O)[C@@]23CO[C@@H](O)[C@]1(C)[C@@H]2C[C@@H](O)[C@]1(C)[C@@H]3C(=O)[C@H](OC(C)=O)[C@@]2(C)[C@H](c3ccoc3)C[C@H]3O[C@]321 | 0.507 | 0.928
29 | O=C1O[C@H]([C@H](O)CO)C([O-])=C1O.[Na+] | 0.987 | 1.04
30 | COc1c(O)cc(O)c2c(=O)cc(-c3ccccc3)oc12 | 1.66 | 0.796
31 | O=C(O)/C=C/C=C/C(=O)O | 1.06 | 1.07
32 | Cc1cn([C@@H]2O[C@H](CO)[C@@H](O)[C@H]2O)c(=O)nc1N | 1.04 | 0.881
33 | N[C@@H](Cc1ccc(O)c(I)c1)C(=O)O | 0.855 | 1.32
34 | COc1cc(O)c2c(c1)C(=O)c1cc(C)cc(O)c1C2=O | 0.781 | 1.48
35 | Cc1cn(C2OC(CO)C(O)C2O)c(=O)[nH]c1=O (stereo not given) | 1.23 | 0.949
36 | C=C(C)[C@@H]1CC[C@]2(C)[C@H](CC=C3[C@@H]4[C@@H](C)[C@H](C)CC[C@]4(C)CC[C@]32C)[C@@]1(C)CCC(=O)O | 1.13 | 1.25
37 | C[C@H](CCC(=O)NCCS(=O)(=O)O)[C@H]1CC[C@H]2[C@@H]3[C@H](O)C[C@@H]4C[C@H](O)CC[C@]4(C)[C@H]3C[C@H](O)[C@]12C | 1.03 | 0.872
38 | CCCCC/C=C\C/C=C\C/C=C\C/C=C\CCCC(=O)O | 1 | 0.703
39 | CCCCCCCC(=O)c1c(O)cc(O)cc1CC(=O)OCC | 1.04 | 0.974
40 | Cc1coc2c1C(=O)C(=O)c1c-2ccc2c1CCCC2(C)C | 0.975 | 1.22
41 | CO[C@H]1/C=C/O[C@@]2(C)Oc3c(C)c(O)c4c(O)c(c5c(nc6cc(C)ccn65)c4c3C2=O)NC(=O)/C(C)=C\C=C\[C@H](C)[C@H](O)[C@@H](C)[C@@H](O)[C@@H](C)[C@H](OC(C)=O)[C@@H]1C | 1.21 | 0.836
42 | O=C(O)c1ccnc2ccccc12 | 1.02 | 0.957
43 | Cn1c(=O)[nH]c(=O)c2[nH]cnc21 | 0.966 | 0.945
44 | O=C(O)/C=C\C(=O)O | 1.08 | 0.936

Row | Compound | cell viability [1] | cell viability [2]
45 | Nc1ccc(S(=O)(=O)Nc2ccccn2)cc1 | 1.11 | 0.878
46 | N[C@@H](CCC(=O)O)C(=O)O | 1.13 | 1.01
47 | Cc1onc(-c2ccccc2Cl)c1C(=O)N[C@@H]1C(=O)N2[C@@H]1SC(C)(C)[C@@H]2C(=O)O | 1.08 | 0.897
48 | NC(N)=NCCCC[C@H](N)C(=O)O | 1.17 and 1.07 | 1.07 and 0.867
49 | O=c1ccn([C@@H]2O[C@H](COP(=O)(O)O)[C@@H](O)[C@H]2O)c(=O)[nH]1 | 0.914 | 0.969
50 | CCCCCCCCCCCC(=O)O | 1.01 | 1.06
51 | COC(=O)N/N=C/c1c[n+]([O-])c2ccccc2[n+]1[O-] | 1.09 | 0.958
52 | O=C(O)c1ccc(C(=O)O)cc1 | 0.991 | 0.994
53 | Cc1cc(O)c2c(c1)C(=O)c1cccc(O)c1C2=O | 0.918 | 1.27
54 | C[C@H](CC[C@@]1(O)O[C@H]2C[C@H]3[C@@H]4CC=C5C[C@@H](O[C@@H]6O[C@H](CO)[C@@H](O[C@@H]7O[C@@H](C)[C@H](O)[C@@H](O)[C@H]7O)[C@H](O)[C@H]6O[C@@H]6O[C@@H](C)[C@H](O)[C@@H](O)[C@H]6O)CC[C@]5(C)[C@H]4CC[C@]3(C)[C@H]2[C@@H]1C)CO[C@@H]1O[C@H](CO)[C@@H](O)[C@H](O)[C@H]1O | 0.86 | 0.93
55 | CCCCOC(=O)c1ccc(O)cc1 | 1.1 | 0.982
56 | O=C(/C=C/c1ccc(O)c(O)c1)O[C@@H]1C[C@](O)(C(=O)O)C[C@@H](O)[C@H]1O | 0.84 | 1.2
57 | c1coc(CNc2ncnc3[nH]cnc23)c1 | 1.12 | 0.934
58 | NC(=O)[C@@H]1CC[C@@H]2CN1C(=O)N2OS(=O)(=O)O | 0.719 | 0.905
59 | NCCc1c[nH]cn1 | 1.34 and 1.28 and 1.07 | 0.987 and 0.932 and 0.875
60 | CC[C@H](C)C(=O)O[C@H]1C[C@H](O)C=C2C=C[C@H](C)[C@H](CC[C@@H](O)C[C@@H](O)CC(=O)O)[C@H]21 | 0.981 and 1.02 | 0.905 and 0.981
61 | CC[C@]1(O)C[C@@H]2CN(CCc3c([nH]c4ccccc34)[C@@](C(=O)OC)(c3cc4c(cc3OC)N(C)[C@H]3[C@@](O)(C(=O)OC)[C@H](OC(C)=O)[C@]5(CC)C=CCN6CC[C@]43[C@@H]65)C2)C1 | 0.323 and 0.589 | 0.707 and 0.59
62 | O=C1c2cccc(O)c2C(=O)c2c(O)cccc21 | 0.939 | 0.899
63 | Nc1ccc(C(=O)NCC(=O)O)cc1 | 1.07 | 0.91
64 | O=c1ccc2cc(O)c(O)cc2o1 | 0.88 | 0.865
65 | Oc1ccc2c(c1)OCO2 | 1.07 | 0.902
66 | CN(N=O)C(=O)N[C@@H](C=O)[C@@H](O)[C@H](O)[C@H](O)CO | 1.03 | 0.888

Row | Compound | cell viability [1] | cell viability [2]
67 | NC[C@H]1O[C@H](O[C@H]2[C@H](O)[C@@H](O[C@H]3O[C@H](CO)[C@@H](O)[C@H](N)[C@H]3O)[C@H](N)C[C@@H]2N)[C@H](O)[C@@H](O)[C@@H]1O | 1.17 | 0.839
68 | N[C@@H]1CN(c2c(F)cc3c(=O)c(C(=O)O)cn([C@@H]4C[C@@H]4F)c3c2Cl)CC12CC2 | 0.76 | 0.753
69 | O=C(/C=C/c1ccc(O)c(O)c1)c1ccc(O)cc1O | 1.09 | 0.894
70 | CC(=O)Oc1cccc2c1C(=O)c1c(OC(C)=O)cc(C(=O)O)cc1C2=O | 1.43 | 0.92
71 | O=C(/C=C/c1ccc(O)c(O)c1/C=C/c1ccc(O)c(O)c1)O[C@H](Cc1ccc(O)c(O)c1)C(=O)O | 1.39 | 1.23
72 | COc1ccc2cc(C(=O)O)ccc2c1 | 0.838 | 1.19
73 | CN1CCN2c3ccccc3Cc3ccccc3C2C1 (stereo not given) | 1.11 | 0.765
74 | Oc1c(Cl)cc(Cl)c2cccnc12 | 0.949 | 0.406
75 | COC(=O)C1=CO[C@@H](O[C@@H]2O[C@H](CO)[C@@H](O)[C@H](O)[C@H]2O)[C@@H]2[C@@H](C)[C@@H](O)C[C@H]12 | 1.72 | 0.876
76 | C[C@H]1O[C@H](O[C@H]2[C@H](O)[C@@H](O)[C@@H](O[C@H]3[C@H](O)[C@@H](O)C(O)O[C@@H]3CO)O[C@@H]2CO)[C@H](O)[C@@H](O)[C@@H]1N[C@H]1C=C(CO)[C@@H](O)[C@H](O)[C@H]1O (stereo not given in full) | 1.09 | 0.856
77 | COc1cc(/C=C\C(=O)O)cc(OC)c1O | 0.87 | 1.09
78 | C[C@H]1COc2c(C3(N)CC3)c(F)cc3c(=O)c(C(=O)O)cn1c23 | 0.902 | 0.941
79 | O=C(O)CCCCCCCCCC(=O)O | 1.13 | 0.773
80 | CC(C)CC(=O)NCC(=O)O | 1.06 | 0.862
81 | COc1cc2c(cc1OC)[C@@H](Cc1ccc(Oc3cc(C[C@@H]4c5cc(OC)c(OC)cc5CCN4C)ccc3O)cc1)N(C)CC2 | 0.919 | 0.748
82 | O=C(O)/C=C(/CC(=O)O)C(=O)O | 0.865 | 0.998
83 | CCC/C=C1\OC(=O)C2=C1CCC=C2 | 1.12 | 1.01
84 | CCCCN1C[C@H](O)[C@@H](O)[C@H](O)[C@H]1CO | 0.724 | 0.944
85 | CN1C(=O)/C(=C2/C(=O)Nc3ccccc32)c2ccccc21 | 0.889 | 0.949
